Reference: US20070135497A1, “Biphenyl derivative or its salt, and pesticide containing it as an active ingredient” (ISHIHARA SANGYO KAISHA LTD., priority 2003, published 2007)
Some of these results come from one statement about several compounds together.

Columns and labels:
[1] = tested on: fungi of powdery mildew (wheat powdery mildew); experiment: Test on preventive effect against wheat powdery mildew; format: in vivo, Wheat (cultivar: Norin-61-go); details: foliar spray before inoculation, area of sporogony 6 to 7 days after inoculation
[2] = tested on: fungi of powdery mildew (cucumber powdery mildew); experiment: Test on preventive effect against cucumber powdery mildew; format: in vivo, Cucumber (cultivar: Sagamihanpaku); details: foliar spray before inoculation, area of sporogony 6 to 7 days after inoculation

Row | Structure (SMILES) | controlling index ([1]; 400 ppm) | controlling index ([2]; 400 ppm) | also measured
1 | CN(CC=CCl)C(=O)c1cccc(-c2c(Cl)cccc2Cl)c1 [1-237] | 4 (Area of lesions, number of lesions or area of sporogony is less than 10% of non-treated plot) | 4 (Area of lesions, number of lesions or area of sporogony is less than 10% of non-treated plot) | 
2 | CNC(=O)c1cccc(-c2c(F)cccc2Cl)c1 [1-71] | 4 (Area of lesions, number of lesions or area of sporogony is less than 10% of non-treated plot) | 4 (Area of lesions, number of lesions or area of sporogony is less than 10% of non-treated plot) | 
3 | CNC(=O)c1cccc(-c2c(Cl)ccc(Cl)c2Cl)c1 [1-72, N-methyl-3-(2′,3′,6′-trichlorophenyl)benzamide] | 4 (Area of lesions, number of lesions or area of sporogony is less than 10% of non-treated plot) | 4 (Area of lesions, number of lesions or area of sporogony is less than 10% of non-treated plot) | 
4 | Cc1cc(C)c(-c2cccc(C(=O)N(C)CC3CC3)c2)c(C)c1 [1-7] | 4 (Area of lesions, number of lesions or area of sporogony is less than 10% of non-treated plot) | 4 (Area of lesions, number of lesions or area of sporogony is less than 10% of non-treated plot) | 
5 | CN(C(=O)c1cccc(-c2c(Cl)cccc2Cl)c1)c1ccsc1 [1-230] | 4 (Area of lesions, number of lesions or area of sporogony is less than 10% of non-treated plot) | 4 (Area of lesions, number of lesions or area of sporogony is less than 10% of non-treated plot) | 
6 | CN(Cc1ccc(F)cc1)C(=O)c1cccc(-c2c(Cl)cccc2Cl)c1 [1-174] | 4 (Area of lesions, number of lesions or area of sporogony is less than 10% of non-treated plot) | 4 (Area of lesions, number of lesions or area of sporogony is less than 10% of non-treated plot) | 
7 | C=C(C)CN(C)C(=O)c1cccc(-c2c(Cl)ccc(C)c2Cl)c1 [1-91] |  |  | controlling index ([1]; 100 ppm): 4 (Area of lesions, number of lesions or area of sporogony is less than 10% of non-treated plot); controlling index ([2]; 100 ppm): 4 (Area of lesions, number of lesions or area of sporogony is less than 10% of non-treated plot)
8 | CN(Cc1ccncc1)C(=O)c1cccc(-c2c(Cl)cccc2Cl)c1 [1-260] | 4 (Area of lesions, number of lesions or area of sporogony is less than 10% of non-treated plot) | 4 (Area of lesions, number of lesions or area of sporogony is less than 10% of non-treated plot) | 
9 | CN(C)C(=O)c1cccc(-c2c(Cl)cccc2Cl)c1 [1-259] | 4 (Area of lesions, number of lesions or area of sporogony is less than 10% of non-treated plot) | 4 (Area of lesions, number of lesions or area of sporogony is less than 10% of non-treated plot) | 
10 | CNC(=O)c1cccc(-c2c(Cl)ccc(F)c2F)c1 [1-74] | 4 (Area of lesions, number of lesions or area of sporogony is less than 10% of non-treated plot) | 4 (Area of lesions, number of lesions or area of sporogony is less than 10% of non-treated plot) | 
11 | Nc1cccc(-c2c(Cl)ccc(Cl)c2Cl)c1 [1-218] | 4 (Area of lesions, number of lesions or area of sporogony is less than 10% of non-treated plot) | 4 (Area of lesions, number of lesions or area of sporogony is less than 10% of non-treated plot) | 
12 | CNC(=O)c1cccc(-c2c(F)ccc(C)c2Cl)c1 [1-99] | 4 (Area of lesions, number of lesions or area of sporogony is less than 10% of non-treated plot) | 4 (Area of lesions, number of lesions or area of sporogony is less than 10% of non-treated plot) | 
13 | CCN(CC)C(=O)c1cccc(-c2c(C(F)(F)F)ccc(F)c2Cl)c1 [1-266] | 4 (Area of lesions, number of lesions or area of sporogony is less than 10% of non-treated plot) | 4 (Area of lesions, number of lesions or area of sporogony is less than 10% of non-treated plot) | 
14 | CNC(=O)c1cccc(-c2c(Cl)ccc(OC)c2Cl)c1 [1-101] | 4 (Area of lesions, number of lesions or area of sporogony is less than 10% of non-treated plot) | 4 (Area of lesions, number of lesions or area of sporogony is less than 10% of non-treated plot) | 
15 | C=C(Br)CN(C)C(=O)c1cccc(-c2c(Cl)cccc2Cl)c1 [1-181] | 4 (Area of lesions, number of lesions or area of sporogony is less than 10% of non-treated plot) | 4 (Area of lesions, number of lesions or area of sporogony is less than 10% of non-treated plot) | 
16 | CC(C)=CCN(C)C(=O)c1cccc(-c2c(F)cccc2Cl)c1 [1-188] | 4 (Area of lesions, number of lesions or area of sporogony is less than 10% of non-treated plot) | 4 (Area of lesions, number of lesions or area of sporogony is less than 10% of non-treated plot) | 
17 | CC#CCN(C)C(=O)c1cccc(-c2c(F)cccc2C(F)(F)F)c1 [1-186] | 4 (Area of lesions, number of lesions or area of sporogony is less than 10% of non-treated plot) |  | controlling index ([2]; 200 ppm): 4 (Area of lesions, number of lesions or area of sporogony is less than 10% of non-treated plot)

Row | Structure (SMILES) | controlling index ([1]; 400 ppm) | controlling index ([2]; 400 ppm) | also measured
18 | C=C(C)CN(C)C(=O)c1cccc(-c2c(Cl)ccc(C(F)(F)F)c2Cl)c1 [1-124] |  |  | controlling index ([1]; 100 ppm): 4 (Area of lesions, number of lesions or area of sporogony is less than 10% of non-treated plot); controlling index ([1]; 200 ppm): 4 (Area of lesions, number of lesions or area of sporogony is less than 10% of non-treated plot); controlling index ([2]; 100 ppm): 4 (Area of lesions, number of lesions or area of sporogony is less than 10% of non-treated plot)
19 | CC#CCN(C)C(=O)c1cccc(-c2c(C)cc(C)cc2C)c1 [1-17] | 4 (Area of lesions, number of lesions or area of sporogony is less than 10% of non-treated plot) | 4 (Area of lesions, number of lesions or area of sporogony is less than 10% of non-treated plot) | 
20 | C=CCN(C)C(=O)c1cccc(-c2c(Cl)cccc2Cl)c1 [1-151] | 4 (Area of lesions, number of lesions or area of sporogony is less than 10% of non-treated plot) | 4 (Area of lesions, number of lesions or area of sporogony is less than 10% of non-treated plot) | 
21 | CNC(=O)c1cccc(-c2c(Cl)ccc(C(F)(F)F)c2Cl)c1 [1-120, N-methyl-3-(2′,6′-dichloro-3′-trifluoromethylphenyl)benzamide] |  | 4 (Area of lesions, number of lesions or area of sporogony is less than 10% of non-treated plot) | controlling index ([1]; 200 ppm): 4 (Area of lesions, number of lesions or area of sporogony is less than 10% of non-treated plot)
22 | C#CCN(C)C(=O)c1cccc(-c2c(F)ccc(C)c2Cl)c1 [1-100] | 4 (Area of lesions, number of lesions or area of sporogony is less than 10% of non-treated plot) | 4 (Area of lesions, number of lesions or area of sporogony is less than 10% of non-treated plot) | 
23 | CC=CCN(C)C(=O)c1cccc(-c2c(Cl)cccc2Cl)c1 [1-180] | 4 (Area of lesions, number of lesions or area of sporogony is less than 10% of non-treated plot) | 4 (Area of lesions, number of lesions or area of sporogony is less than 10% of non-treated plot) | 
24 | CC(C)=CCN(C)C(=O)c1cccc(-c2c(F)cccc2C(F)(F)F)c1 [1-185] | 4 (Area of lesions, number of lesions or area of sporogony is less than 10% of non-treated plot) | 4 (Area of lesions, number of lesions or area of sporogony is less than 10% of non-treated plot) | 
25 | CCN(C)C(=O)c1cccc(-c2c(Cl)ccc(C)c2Cl)c1 [1-90] |  |  | controlling index ([1]; 100 ppm): 4 (Area of lesions, number of lesions or area of sporogony is less than 10% of non-treated plot); controlling index ([2]; 100 ppm): 4 (Area of lesions, number of lesions or area of sporogony is less than 10% of non-treated plot)
26 | CNC(=O)c1cccc(-c2c(Cl)ccc(Br)c2Cl)c1 [1-82, N-methyl-3-(2′,6′-dichloro-3′-bromophenyl)benzamide] | 4 (Area of lesions, number of lesions or area of sporogony is less than 10% of non-treated plot) | 4 (Area of lesions, number of lesions or area of sporogony is less than 10% of non-treated plot) | 
27 | C#CCN(C)C(=O)c1cccc(-c2c(Cl)ccc(F)c2Cl)c1 [1-235] | 4 (Area of lesions, number of lesions or area of sporogony is less than 10% of non-treated plot) | 4 (Area of lesions, number of lesions or area of sporogony is less than 10% of non-treated plot) | 
28 | CC(C)=CCN(C)C(=O)c1cccc(-c2c(C)cc(C)cc2C)c1 [1-10] | 4 (Area of lesions, number of lesions or area of sporogony is less than 10% of non-treated plot) | 4 (Area of lesions, number of lesions or area of sporogony is less than 10% of non-treated plot) | 
29 | CCN(C)C(=O)c1cccc(-c2c(Cl)ccc(C(F)(F)F)c2Cl)c1 [1-122] |  |  | controlling index ([1]; 100 ppm): 4 (Area of lesions, number of lesions or area of sporogony is less than 10% of non-treated plot); controlling index ([2]; 100 ppm): 4 (Area of lesions, number of lesions or area of sporogony is less than 10% of non-treated plot)
30 | Cc1cc(C)c(-c2cccc(C(=O)N(C)C)c2)c(C)c1 [Compound No. 1-2] | 4 (Area of lesions, number of lesions or area of sporogony is less than 10% of non-treated plot) | 4 (Area of lesions, number of lesions or area of sporogony is less than 10% of non-treated plot) | 
31 | CC(C)=CCN(C)C(=O)c1cccc(-c2c(Cl)cccc2Cl)c1 [1-152] | 4 (Area of lesions, number of lesions or area of sporogony is less than 10% of non-treated plot) | 4 (Area of lesions, number of lesions or area of sporogony is less than 10% of non-treated plot) | 
32 | C#CCN(C)C(=O)c1ccc(C)c(-c2ccccc2C)c1 [2-2] | 4 (Area of lesions, number of lesions or area of sporogony is less than 10% of non-treated plot) | 4 (Area of lesions, number of lesions or area of sporogony is less than 10% of non-treated plot) | 
33 | Cc1cc(C)c(-c2cccc(C(=O)N(C)CC=CBr)c2)c(C)c1 [1-11] | 4 (Area of lesions, number of lesions or area of sporogony is less than 10% of non-treated plot) | 4 (Area of lesions, number of lesions or area of sporogony is less than 10% of non-treated plot) | 
